This passage reports binding signal results from article PMC7819943, “Rice protein-binding microarrays: a tool to detect cis-acting elements near promoter regions in rice”.

This is one part of the list.

In this test the target is T1, OsSMF1 (Oryza sativa, UniProt Q6ZLB0 1-436).
T1 sequence: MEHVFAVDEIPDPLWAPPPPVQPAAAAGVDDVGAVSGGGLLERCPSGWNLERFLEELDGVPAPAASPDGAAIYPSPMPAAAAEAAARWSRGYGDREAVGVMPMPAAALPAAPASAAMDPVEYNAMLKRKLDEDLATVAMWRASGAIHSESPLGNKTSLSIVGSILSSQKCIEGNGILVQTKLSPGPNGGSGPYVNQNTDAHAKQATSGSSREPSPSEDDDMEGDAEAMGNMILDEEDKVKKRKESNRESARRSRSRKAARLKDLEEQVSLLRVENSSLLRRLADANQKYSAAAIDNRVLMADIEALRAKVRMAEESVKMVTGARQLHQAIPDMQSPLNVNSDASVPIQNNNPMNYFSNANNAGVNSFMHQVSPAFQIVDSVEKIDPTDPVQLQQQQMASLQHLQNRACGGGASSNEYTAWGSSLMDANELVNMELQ
Briefly: protein-binding microarray (RPBM); PBS, 2% BSA, 51.3 ng/ul salmon testes DNA, 50 uM zinc acetate, 200 nM TF, 25 C, 1 h; high values mean tight binding. The note with it: protein: recombinant; tags: N-terminal polyhistidine and DsRed monomer fusion (pET32a); chain copies: 2; label: CyDye5-dUTP incorporated in the synthesized complementary strand; 3' TTTTT single-stranded linker to array surface; dsDNA, one strand shown. The method, boiled down: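 Binding signal is reported as fluorescence intensity per feature (arbitrary units) from an Axon 4000B scanner. Incubation used 200 nM of each Ni–NTA-purified, N-terminally polyhistidine- and DsRed-fused transcription factor from E. coli BL21-CodonPlus on a double-stranded custom Agilent array for 1 h at 25 °C, with 50 µM zinc acetate in the buffer, followed by washing.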
Take “TATATGGGTACCACACTTGACTCAGCTACCACGTCAGCTCCGGAGTCACCTAGTGCAG”: the binding signal is 29300 fluorescence intensity (a.u.).
For the sequence “AACGCGACCCCGTCGGCGACGGCGGACGGCGCGTGGTCGTCGGAGTCACCTAGTGCAG”, the binding signal was 26400 fluorescence intensity (a.u.).
As to “TGCAAACCTGGGTTTGTACACGTACTGACCACGGGTGCAGCGGAGTCACCTAGTGCAG”, the binding signal was 7770 fluorescence intensity (a.u.).
To “GCGAATGCGTCCAAGGCGGAGGCGACAACGAGCAGCAAACCGGAGTCACCTAGTGCAG” belongs 3200 fluorescence intensity (a.u.); to “CCTCCTCCCCACCAGCCGGCCTGCCACGCCCAGCCCCTCCCGGAGTCACCTAGTGCAG”, 3840 fluorescence intensity (a.u.).
For the sequence “TACAACACACAGTGACAATGCAGTGCAGAAGATAAAACGGCGGAGTCACCTAGTGCAG”, the binding signal was 3560 fluorescence intensity (a.u.).
In the case of “CCTTAGCTTGTCAGAAGACCCCGTGGGACGGCTCGCAGATCGGAGTCACCTAGTGCAG”, the binding signal is 3390 fluorescence intensity (a.u.).
For the sequence “AACGATTGCATGTCTGTTCGCTAGGGACGCTACACGTACGCGGAGTCACCTAGTGCAG”, the binding signal was 3240 fluorescence intensity (a.u.).
For “GGTGAAACAACACGTGGAACTGGAACCTGCCATGTTTTGTCGGAGTCACCTAGTGCAG” the value was 11000 fluorescence intensity (a.u.); for “TCGACACCAATGCCCACGCCTAGCCGCTGCTGGTTCGCCACGGAGTCACCTAGTGCAG”, 3220 fluorescence intensity (a.u.).
With “GCAACGGGGTGCGCTGTGGTGGGGACACGTGGCGGCGTGCCGGAGTCACCTAGTGCAG”, the binding signal was 16000 fluorescence intensity (a.u.).
Take “CGAGCAACACCAGTCACCAGCATCATCGGTGAGCATGGGTCGGAGTCACCTAGTGCAG”: the binding signal is 4210 fluorescence intensity (a.u.).
For “GTGCATCCAACGGTCATTATTAAATTGATGACGTGGCGCACGGAGTCACCTAGTGCAG” the value was 27900 fluorescence intensity (a.u.); for “GGCGCTGGAGGTGGCGCGAGGGCGATGGGACGCGTGGCTCCGGAGTCACCTAGTGCAG”, 3470 fluorescence intensity (a.u.).
For “GCTTGCGCCAAAACCAAACATAGAGCAGCAATAGAGAGGACGGAGTCACCTAGTGCAG” the value was 3610 fluorescence intensity (a.u.).
As to “CGCGCCGAATGACGATCGATCGACGCGCACGCAACCGGCCCGGAGTCACCTAGTGCAG”, the binding signal was 3930 fluorescence intensity (a.u.).
Consider “GCAACCGCTTCACGTGGCCTGATCCTCCTCCGGAGCTCTCCGGAGTCACCTAGTGCAG”, for which the binding signal was 19500 fluorescence intensity (a.u.).
For “AAACATAATGAAAATACACGTTGAAACATATGGCTATCACCGGAGTCACCTAGTGCAG”, the binding signal was 3350 fluorescence intensity (a.u.).
Turning to “GTCCTCGGCCAGGGTGACGTGGGCCAGGGTCCACAGCTCCCGGAGTCACCTAGTGCAG”, the binding signal was 8740 fluorescence intensity (a.u.).
Turning to “GTAGAGTGTAGTTTCTATTGTGATGTCTTATTGACATGGCCGGAGTCACCTAGTGCAG”, the binding signal is 3790 fluorescence intensity (a.u.).
Regarding “TCGCCGAGCCTCCGGGTGTGTCCTCCCTACACGTCCGCCTCGGAGTCACCTAGTGCAG”, the binding signal is 3660 fluorescence intensity (a.u.).
Regarding “GGATAAGCCTATCAGACTAATCTGACTCACAGACGTTTAACGGAGTCACCTAGTGCAG”, the binding signal is 3580 fluorescence intensity (a.u.).
For “AATGTTAAGTGGTCATCTGTTCGTCCTAGTATTGTTGTTGCGGAGTCACCTAGTGCAG” the value was 3840 fluorescence intensity (a.u.).
For “GTTTTGGAGGGCGGTTTTGCTGACGTGGCGCTGACATGGCCGGAGTCACCTAGTGCAG”, the binding signal is 32800 fluorescence intensity (a.u.).
Consider “CTAACGTACGTTCAGTGTACTAGGTAGATTTTCATCCAAACGGAGTCACCTAGTGCAG”, for which the binding signal was 23500 fluorescence intensity (a.u.).
Regarding “TTTTAATGAATAGAATGCTAACTCAGCTCCACGTAAACCACGGAGTCACCTAGTGCAG”, the binding signal is 9650 fluorescence intensity (a.u.).
For the sequence “CGTGAGGTGAGCTTGAGGTGGTGAGCTGGTGCGAGCGAAACGGAGTCACCTAGTGCAG”, the binding signal was 4800 fluorescence intensity (a.u.).
Turning to “TGTTGGTGGTGAGGTGTGAGGTGAGGTGGGGTGGTGTGGCCGGAGTCACCTAGTGCAG”, the binding signal is 3380 fluorescence intensity (a.u.).
Take “TTATATTTTAATTAAAACTATTATAATACACAATACGTCACGGAGTCACCTAGTGCAG”: the binding signal was 7060 fluorescence intensity (a.u.).
On to “TGGTCGTAGATCAGGCGTCCTACCTCCCATTCTGTACAGACGGAGTCACCTAGTGCAG”, for which the binding signal was 23800 fluorescence intensity (a.u.).
“CATGGTATTGTTTGATGCCAACTGAATTGATACAATGTGACGGAGTCACCTAGTGCAG”: the binding signal was 20500 fluorescence intensity (a.u.).
To “TTTAGTGGCAGTCTTATAATAACGATTCAAAATAGTGGCACGGAGTCACCTAGTGCAG” belongs 3190 fluorescence intensity (a.u.); to “CTTGCGGGCGTCGTCGTAGCGTGGTAGGAGTAGGGGAGCCCGGAGTCACCTAGTGCAG”, 4020 fluorescence intensity (a.u.); to “ATGTTTCACTAGTTTATTTGTAAATATTGCACATGTGTTGCGGAGTCACCTAGTGCAG”, 3440 fluorescence intensity (a.u.).
“CCGCCGTCCGCCGCCATCCTCGGTGCCGCCGTGGCCTGTGCGGAGTCACCTAGTGCAG”: the binding signal is 4430 fluorescence intensity (a.u.).
For “CAGCCGTTCGATCGCGTTCCTGACGTCCACGGTCAAACTCCGGAGTCACCTAGTGCAG”, the binding signal was 4080 fluorescence intensity (a.u.).
Regarding “CCAAGCAAGCATACAGAGAGCAATAAAAGTATAAAACACACGGAGTCACCTAGTGCAG”, the binding signal is 4950 fluorescence intensity (a.u.).
Turning to “CAAGAGGCGCCGGCATCTCGTGCCCGCGTGGCCTCTTCCTCGGAGTCACCTAGTGCAG”, the binding signal is 3440 fluorescence intensity (a.u.).
Regarding “CTCCCAATGCACAACTTAATAGTGTCTAGTGCATAGGTTCCGGAGTCACCTAGTGCAG”, the binding signal was 3710 fluorescence intensity (a.u.).
Take “ACCGATGCCGACGTGCCATCCCTTTGTATCATTTCATTTCCGGAGTCACCTAGTGCAG”: the binding signal is 6270 fluorescence intensity (a.u.).
Consider “GGCTATGCAGGAGTAGGGTCGTGACGGTTCACATGCTTCTCGGAGTCACCTAGTGCAG”, for which the binding signal is 3320 fluorescence intensity (a.u.).
Consider “ATAGATTATGTACCTGTGAGATGATTGGAGTGGGGCCATACGGAGTCACCTAGTGCAG”, for which the binding signal is 3460 fluorescence intensity (a.u.).
